# Assay results reported in the supplement of paper PMC4635364.
# Where a name gives a salt, the structure may show the parent alone. This is one part of the list. Single values are uncertain here, since repeats match poorly.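 Cells: ReNCell VM human fetal ventral-midbrain neural progenitors, differentiated mitogen-free. Blinded raters compared doublecortin-stained (early neurons) or tyrosine hydroxylase-stained (dopaminergic neurons) images with untreated wells, where 0 means no change. After repeats and both raters were averaged, compounds scoring 2 or above became hits for retesting.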
# How the values were obtained:
# ReNCell VM [1] = assay: neuronal differentiation score (DCX+ cell fraction vs untreated, manual image score) (score (-3 to 3)); higher = more neuronal differentiation; conditions: 2 uM, 2 weeks
# ReNCell VM [2] = assay: dopaminergic neuron differentiation score (TH+ cell fraction vs untreated, manual image score) (score (0 to 3)); higher = more TH+ dopaminergic neuron differentiation; conditions: 2 uM, 4 weeks, BDNF 10 ng/ml + GDNF 10 ng/ml
structure (smiles),measurement,setting,value
CC(Cc1ccc(O)c(O)c1)C(C)Cc1ccc(O)c(O)c1 (stereo unspecified) [nordihydroguaiaretic acid],neuronal differentiation score,ReNCell VM [1]; library: Natural,inactive: 0
same,dopaminergic neuron differentiation score,ReNCell VM [2]; library: Natural,inactive: 0
Cn1c(=O)c2c(ncn2CC2OCCO2)n(C)c1=O [Doxofylline],neuronal differentiation score,ReNCell VM [1]; library: Prestwick,inactive: 0
same,dopaminergic neuron differentiation score,ReNCell VM [2]; library: Prestwick,inactive: 0
CCN(CC)CCCCC1CCN(CC(=O)N2c3ccccc3C(=O)Nc3cccnc32)CC1,neuronal differentiation score,ReNCell VM [1]; library: Tocriscreen,inactive: 0
same,dopaminergic neuron differentiation score,ReNCell VM [2]; library: Tocriscreen,inactive: 0
Clc1ccccc1C(c1ccccc1)(c1ccccc1)n1ccnc1,neuronal differentiation score,ReNCell VM [1]; library: Spectrum,inactive: -1
same,dopaminergic neuron differentiation score,ReNCell VM [2]; library: Spectrum,inactive: 0
NCCCC[C@H](N[C@@H](CCc1ccccc1)C(=O)O)C(=O)N1CCC[C@H]1C(=O)O [Lisinopril],neuronal differentiation score,ReNCell VM [1]; library: Prestwick,inactive: 0
same,dopaminergic neuron differentiation score,ReNCell VM [2]; library: Prestwick,inactive: 0
CCCCCCCCCCCCCCCCCCOCC(COP(=O)([O-])OCC[N+](C)(C)C)OC (stereo unspecified),neuronal differentiation score,ReNCell VM [1]; library: LOPAC,inactive: 0
same,dopaminergic neuron differentiation score,ReNCell VM [2]; library: LOPAC,inactive: 0
Clc1ccccc1CNCC1CCC(CNCc2ccccc2Cl)CC1 (stereo unspecified),neuronal differentiation score,ReNCell VM [1]; library: Tocriscreen,inactive: 0
same,dopaminergic neuron differentiation score,ReNCell VM [2]; library: Tocriscreen,inactive: 0
CCN1C(=O)NC(c2ccccc2)C1=O (stereo unspecified) [Ethotoin],neuronal differentiation score,ReNCell VM [1]; library: Prestwick,inactive: 0
same,dopaminergic neuron differentiation score,ReNCell VM [2]; library: Prestwick,inactive: 0
OC(CCN1CCCCC1)(c1ccccc1)C1CC2C=CC1C2 (stereo unspecified),neuronal differentiation score,ReNCell VM [1]; library: Spectrum,inactive: 0
same,dopaminergic neuron differentiation score,ReNCell VM [2]; library: Spectrum,inactive: 0
NC(C(=O)O)c1ccc(C(=O)O)c(C(=O)O)c1 (racemic),neuronal differentiation score,ReNCell VM [1]; library: Tocriscreen,inactive: 1
same,dopaminergic neuron differentiation score,ReNCell VM [2]; library: Tocriscreen,inactive: 0
O=C(O)C(=O)O.[NH-][C@@H]1CCCC[C@H]1[NH-].[Pt+2],neuronal differentiation score,ReNCell VM [1]; library: Spectrum,inactive: 0
same,dopaminergic neuron differentiation score,ReNCell VM [2]; library: Spectrum,inactive: 0
CC(=O)N(CC(O)CO)c1c(I)c(C(=O)NCC(O)CO)c(I)c(C(=O)NCC(O)CO)c1I (stereo unspecified),neuronal differentiation score,ReNCell VM [1]; library: Spectrum,inactive: 0
same,dopaminergic neuron differentiation score,ReNCell VM [2]; library: Spectrum,inactive: 0
COc1cccc2c1C(=O)c1c(O)c3c(c(O)c1C2=O)C[C@@](O)(C(C)=O)C[C@@H]3O[C@H]1C[C@H](N)[C@H](O)[C@H](C)O1,neuronal differentiation score,ReNCell VM [1]; library: Spectrum,inactive: 0
same,dopaminergic neuron differentiation score,ReNCell VM [2]; library: Spectrum,inactive: 0
NC1=NCC2c3ccccc3Cc3ccccc3N12 (stereo unspecified) [Epinastine hydrochloride],neuronal differentiation score,ReNCell VM [1]; library: LOPAC,inactive: 0
same,dopaminergic neuron differentiation score,ReNCell VM [2]; library: LOPAC,inactive: 0
Cc1nnc(NS(=O)(=O)c2ccc(N)cc2)s1 [Sulfamethizole],neuronal differentiation score,ReNCell VM [1]; library: Prestwick,inactive: 0
same,dopaminergic neuron differentiation score,ReNCell VM [2]; library: Prestwick,inactive: 0
CN(C)CCOC(=O)C(c1ccccc1)C1(O)CCCC1 (stereo unspecified),neuronal differentiation score,ReNCell VM [1]; library: Spectrum,inactive: 0
same,dopaminergic neuron differentiation score,ReNCell VM [2]; library: Spectrum,inactive: 0
N=C(N)NC(=O)c1nc(Cl)c(N)nc1N [Amiloride hydrochloride dihydrate],neuronal differentiation score,ReNCell VM [1]; library: Prestwick,inactive: 0
same,dopaminergic neuron differentiation score,ReNCell VM [2]; library: Prestwick,inactive: 0
NCCCS(=O)(=O)O [3-Amino-1-propanesulfonic acid sodium],neuronal differentiation score,ReNCell VM [1]; library: LOPAC,inactive: 0
same,dopaminergic neuron differentiation score,ReNCell VM [2]; library: LOPAC,inactive: 0
O=C1NCN(c2ccccc2)C12CCN(CCCC(c1ccc(F)cc1)c1ccc(F)cc1)CC2 [Fluspirilen],neuronal differentiation score,ReNCell VM [1]; library: Prestwick,inactive: 0
same,dopaminergic neuron differentiation score,ReNCell VM [2]; library: Prestwick,inactive: 0
COc1ccc(-c2cc(=O)c3c(O)cc(OC)cc3o2)cc1,neuronal differentiation score,ReNCell VM [1]; library: Spectrum,inactive: 0
same,dopaminergic neuron differentiation score,ReNCell VM [2]; library: Spectrum,inactive: 0
C=CCOc1ccccc1OCC(O)CNC(C)C (stereo unspecified) [Oxprenolol hydrochloride],neuronal differentiation score,ReNCell VM [1]; library: Prestwick,inactive: 0
same,dopaminergic neuron differentiation score,ReNCell VM [2]; library: Prestwick,inactive: 0
C[C@]12C=CC(=O)C=C1CC[C@@H]1[C@@H]2C(=O)C[C@@]2(C)[C@H]1CC[C@]2(O)C(=O)CO,neuronal differentiation score,ReNCell VM [1]; library: Spectrum,inactive: 0
same,dopaminergic neuron differentiation score,ReNCell VM [2]; library: Spectrum,inactive: 0
c1ccc2c(c1)CN1CCCC1=N2 [Desoxypeganine Hydrochloride],neuronal differentiation score,ReNCell VM [1]; library: Phytochemical,inactive: 0
same,dopaminergic neuron differentiation score,ReNCell VM [2]; library: Phytochemical,inactive: 0
C[C@@H]1[C@H](O)[C@@H](C)/C=C/C=C/C=C/C=C/C=C/C=C/C=C/[C@H](O[C@@H]2O[C@H](C)[C@@H](O)[C@H](N)[C@@H]2O)C[C@@H]2O[C@](O)(C[C@@H](O)C[C@@H](O)[C@H](O)CC[C@@H](O)C[C@@H](O)CC(=O)O[C@H]1C)C[C@H](O)[C@H]2C(=O)O,neuronal differentiation score,ReNCell VM [1]; library: Spectrum,inactive: 0
same,dopaminergic neuron differentiation score,ReNCell VM [2]; library: Spectrum,inactive: 0
CC(C)=CCC1C(=O)C(C(=O)CC(C)C)=C(O)C(O)(CC=C(C)C)C1=O (stereo unspecified) [humulone],neuronal differentiation score,ReNCell VM [1]; library: Natural,inactive: 0
same,dopaminergic neuron differentiation score,ReNCell VM [2]; library: Natural,inactive: 0
CCOC(=O)C1=C(C)NC(C)=C(C(=O)OCC)C1c1ccccc1/C=C/C(=O)OC(C)(C)C [Lacidipine],neuronal differentiation score,ReNCell VM [1]; library: Prestwick,inactive: 0
same,dopaminergic neuron differentiation score,ReNCell VM [2]; library: Prestwick,inactive: 1
Cc1cc(NC(=O)C2=C(O)c3ccccc3S(=O)(=O)N2C)no1,neuronal differentiation score,ReNCell VM [1]; library: Spectrum,inactive: 0
same,dopaminergic neuron differentiation score,ReNCell VM [2]; library: Spectrum,inactive: 0
Nc1ccccc1S(N)(=O)=O [2-Aminobenzenesulfonamide],neuronal differentiation score,ReNCell VM [1]; library: Prestwick,inactive: 1
same,dopaminergic neuron differentiation score,ReNCell VM [2]; library: Prestwick,inactive: 0
O=C1C(O)=C([C@H]2CC[C@H](c3ccc(Cl)cc3)CC2)C(=O)c2ccccc21,neuronal differentiation score,ReNCell VM [1]; library: Spectrum,inactive: 0
same,dopaminergic neuron differentiation score,ReNCell VM [2]; library: Spectrum,inactive: 0
O=C(O)c1ccccc1Cc1c(Oc2ccccc2)oc2cc(O)ccc2c1=O [7-hydroxy-2-phenoxy-3-(2-carboxybenzyl)chromone],neuronal differentiation score,ReNCell VM [1]; library: Natural,inactive: 0
same,dopaminergic neuron differentiation score,ReNCell VM [2]; library: Natural,inactive: 0
CN1CCN(C2=Nc3ccccc3Oc3ccc(Cl)cc32)CC1,neuronal differentiation score,ReNCell VM [1]; library: Spectrum,inactive: 0
same,dopaminergic neuron differentiation score,ReNCell VM [2]; library: Spectrum,inactive: 0
C#C[C@]1(OC(C)=O)CC[C@H]2[C@@H]3CCC4=CC(=NO)CC[C@@H]4[C@H]3CC[C@@]21CC (mixture of isomers),neuronal differentiation score,ReNCell VM [1]; library: Spectrum,inactive: 1
same,dopaminergic neuron differentiation score,ReNCell VM [2]; library: Spectrum,inactive: 0
Cc1cc(O)c2c(O)c3c(O)cccc3cc2c1,neuronal differentiation score,ReNCell VM [1]; library: Spectrum,inactive: 0
same,dopaminergic neuron differentiation score,ReNCell VM [2]; library: Spectrum,inactive: 0

# Fetched one by one from the entries so far (four):
structure (smiles),measurement,setting,value
C[C@@H]1[C@H](O)[C@@H](C)/C=C/C=C/C=C/C=C/C=C/C=C/C=C/[C@H](O[C@@H]2O[C@H](C)[C@@H](O)[C@H](N)[C@@H]2O)C[C@@H]2O[C@](O)(C[C@@H](O)C[C@@H](O)[C@H](O)CC[C@@H](O)C[C@@H](O)CC(=O)O[C@H]1C)C[C@H](O)[C@H]2C(=O)O,dopaminergic neuron differentiation score,ReNCell VM [2]; library: Spectrum,inactive: 0
NCCCS(=O)(=O)O [3-Amino-1-propanesulfonic acid sodium],dopaminergic neuron differentiation score,ReNCell VM [2]; library: LOPAC,inactive: 0
Nc1ccccc1S(N)(=O)=O [2-Aminobenzenesulfonamide],dopaminergic neuron differentiation score,ReNCell VM [2]; library: Prestwick,inactive: 0
O=C1NCN(c2ccccc2)C12CCN(CCCC(c1ccc(F)cc1)c1ccc(F)cc1)CC2 [Fluspirilen],dopaminergic neuron differentiation score,ReNCell VM [2]; library: Prestwick,inactive: 0
